# PubChem BioAssay AID1224830 – NIAID | 2016
# Test: 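Regulators of TLR4 signalling towards TNF-alpha in macrophage-like cells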 (primary screen)
# Cells: human THP-1 monocytic leukaemia cells, TNF dual-luciferase reporter clone, PMA-differentiated to macrophage-like cells
# Knock-down reagent: siRNA pool against human genes, 50 nM
# Time to read-out: LPS for 4 h, given about 3 days after siRNA transfection
# Conditions: bacterial LPS (TLR4 ligand), 10 ng/ml
# Detection: 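TNF firefly reporter luminescence divided by renilla, normalised to the plate median, then turned into a robust z-score for each replicate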
# Direction: TNF reporter robust z-score: higher = stronger TNF reporter response to LPS
# Call rule: 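Each well counts as active if its z-score is over 2.8 or under -1.5; controls are left without a call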
# The deposit covers about 18,000 reagents; below is a random part of them. About 2,900 of all reagents (16%) were called active. 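Calls are made per well; low scores hint the gene aids the LPS response, high scores that it dampens it.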 Repeated entries: four replicate wells of each siRNA pool.
target gene,PubChem SID,TNF reporter robust z-score,Call
COX6B2,SID315461670,-1.32,inactive
COX6B2,SID315461670,-0.61,inactive
COX6B2,SID315461670,-1.43,inactive
COX6B2,SID315461670,-0.96,inactive
S100A5,SID315451272,1.38,inactive
S100A5,SID315451272,1.56,inactive
S100A5,SID315451272,0.21,inactive
S100A5,SID315451272,0.96,inactive
MSR1,SID315450046,-1.12,inactive
MSR1,SID315450046,-0.46,inactive
MSR1,SID315450046,-0.88,inactive
MSR1,SID315450046,-0.81,inactive
S100A1,SID315451267,0.44,inactive
S100A1,SID315451267,1.45,inactive
S100A1,SID315451267,-0.05,inactive
S100A1,SID315451267,0.63,inactive
DEFB130A,SID315463388,-1.19,inactive
DEFB130A,SID315463388,-0.21,inactive
DEFB130A,SID315463388,0.59,inactive
DEFB130A,SID315463388,1.17,inactive
UBA6,SID315457522,-1.19,inactive
UBA6,SID315457522,1.77,inactive
UBA6,SID315457522,0.56,inactive
UBA6,SID315457522,0.16,inactive
RASA4,SID315453864,-1.85,active
RASA4,SID315453864,-1.69,active
RASA4,SID315453864,-1.73,active
PCYOX1L,SID315459139,-0.18,inactive
PCYOX1L,SID315459139,-0.34,inactive
PCYOX1L,SID315459139,0.01,inactive
PCYOX1L,SID315459139,-0.14,inactive
AGXT2,SID315459041,-0.28,inactive
AGXT2,SID315459041,-0.23,inactive
AGXT2,SID315459041,-0.36,inactive
AGXT2,SID315459041,-0.66,inactive
ABCA5,SID315455256,-1.51,active
ABCA5,SID315455256,-0.24,inactive
ABCA5,SID315455256,0.51,inactive
ABCA5,SID315455256,-0.31,inactive
PAQR6,SID315459588,-0.03,inactive
PAQR6,SID315459588,-0.53,inactive
PAQR6,SID315459588,0.08,inactive
PAQR6,SID315459588,0.63,inactive
TCTA,SID315451806,-0.04,inactive
TCTA,SID315451806,0.92,inactive
TCTA,SID315451806,-0.68,inactive
TCTA,SID315451806,-0.56,inactive
FLJ46838 (retired record),SID315464924,0.25,inactive
FLJ46838 (retired record),SID315464924,1.43,inactive
FLJ46838 (retired record),SID315464924,1.12,inactive
FLJ46838 (retired record),SID315464924,1.11,inactive
ST3GAL5,SID315452887,-0.07,inactive
ST3GAL5,SID315452887,-0.23,inactive
ST3GAL5,SID315452887,-0.16,inactive
ST3GAL5,SID315452887,0.43,inactive
FRRS1,SID315464672,-0.18,inactive
FRRS1,SID315464672,0.71,inactive
FRRS1,SID315464672,0.14,inactive
FRRS1,SID315464672,0.16,inactive
FDCSP,SID315463594,,inactive
FDCSP,SID315463594,-0.8,inactive
FDCSP,SID315463594,-0.76,inactive
FDCSP,SID315463594,-0.98,inactive
FDCSP,SID315463594,-0.92,inactive
TRIB1,SID315453919,0.4,inactive
TRIB1,SID315453919,-0.27,inactive
TRIB1,SID315453919,-0.22,inactive
TMEM266,SID315461581,0.35,inactive
TMEM266,SID315461581,-0.24,inactive
TMEM266,SID315461581,0.36,inactive
TMEM266,SID315461581,0.8,inactive
ZMAT2,SID315462564,-0.27,inactive
ZMAT2,SID315462564,0.04,inactive
ZMAT2,SID315462564,-0.76,inactive
ZMAT2,SID315462564,-0.94,inactive
MARCKSL1,SID315459085,-0.87,inactive
MARCKSL1,SID315459085,-0.17,inactive
MARCKSL1,SID315459085,-0.55,inactive
MARCKSL1,SID315459085,-1.22,inactive
LSMEM1,SID315463890,-0.45,inactive
LSMEM1,SID315463890,-0.27,inactive
LSMEM1,SID315463890,-0.58,inactive
LSMEM1,SID315463890,0.15,inactive
TPSD1,SID315455238,-0.19,inactive
TPSD1,SID315455238,2.51,inactive
TPSD1,SID315455238,2.14,inactive
TPSD1,SID315455238,2.8,active
QRICH1,SID315457224,-0.78,inactive
QRICH1,SID315457224,-1.17,inactive
QRICH1,SID315457224,-1.11,inactive
QRICH1,SID315457224,-0.87,inactive
DBP,SID315448254,-0.35,inactive
DBP,SID315448254,-0.14,inactive
DBP,SID315448254,-0.28,inactive
DBP,SID315448254,0.18,inactive
JAG1,SID315447243,-1.17,inactive
JAG1,SID315447243,-0.98,inactive
JAG1,SID315447243,-1.19,inactive
JAG1,SID315447243,-0.03,inactive
CD8B,SID315447767,-0.52,inactive
CD8B,SID315447767,0.54,inactive
CD8B,SID315447767,0.7,inactive
CD8B,SID315447767,0.55,inactive
GABRR1,SID315448811,0.12,inactive
GABRR1,SID315448811,0.32,inactive
GABRR1,SID315448811,0.48,inactive
GABRR1,SID315448811,-1.33,inactive
PPP1R35,SID315463320,1.61,inactive
PPP1R35,SID315463320,0.21,inactive
PPP1R35,SID315463320,-1.23,inactive
PPP1R35,SID315463320,-0.66,inactive

Targets above whose target name starts with G or g (4):
target gene,PubChem SID,TNF reporter robust z-score,Call
GABRR1,SID315448811,0.12,inactive
GABRR1,SID315448811,0.32,inactive
GABRR1,SID315448811,0.48,inactive
GABRR1,SID315448811,-1.33,inactive
